Assay [1] has as its target T1, recombinant full-length Fbln7 (Fbln7-FL) (mouse) (UniProt Q501P1).
T1 sequence: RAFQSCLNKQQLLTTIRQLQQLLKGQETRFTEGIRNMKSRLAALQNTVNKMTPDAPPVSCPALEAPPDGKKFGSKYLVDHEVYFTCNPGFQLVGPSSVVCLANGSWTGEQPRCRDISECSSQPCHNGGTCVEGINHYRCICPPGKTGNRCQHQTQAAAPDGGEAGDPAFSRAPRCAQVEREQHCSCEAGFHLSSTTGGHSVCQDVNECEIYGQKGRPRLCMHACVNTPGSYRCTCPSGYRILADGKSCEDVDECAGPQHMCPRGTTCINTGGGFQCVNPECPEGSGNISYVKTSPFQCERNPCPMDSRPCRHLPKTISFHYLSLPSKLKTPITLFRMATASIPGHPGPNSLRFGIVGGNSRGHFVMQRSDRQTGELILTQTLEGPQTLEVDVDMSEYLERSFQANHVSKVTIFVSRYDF
As to the kind of experiment: ELISA; solid phase binding assay; 96-well dish coated with protein (1 μg/well) overnight at 4 °C; second protein in PBS (VEGF 500 pg/well, VEGFR1 and VEGFR2 10 ng/well) added for 3 hours; second protein detected by primary antibody and HRP-conjugated secondary antibody; both purified.

Assay [2] addresses T2, recombinant C-terminal Fbln7 fragment (Fbln7-C) (mouse) (UniProt Q501P1).
T2 sequence: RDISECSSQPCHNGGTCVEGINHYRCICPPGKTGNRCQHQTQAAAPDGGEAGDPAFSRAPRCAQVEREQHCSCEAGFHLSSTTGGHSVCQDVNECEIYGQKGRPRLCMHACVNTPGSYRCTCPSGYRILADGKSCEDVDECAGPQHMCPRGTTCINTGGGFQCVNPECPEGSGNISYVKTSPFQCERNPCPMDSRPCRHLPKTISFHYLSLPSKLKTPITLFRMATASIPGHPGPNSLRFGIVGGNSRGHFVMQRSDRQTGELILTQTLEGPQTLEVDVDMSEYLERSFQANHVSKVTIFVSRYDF
Described as above.

These are yes or no findings as the source states them, for the method shown.

For one substance, binding results are on record in article PMC6281620.

As to “Recombinant vascular endothelial growth factor (VEGF) 164 (ligand)”, the binding entry in assay [1] and in assay [2] was “no binding (tested: 500 pg/well)” throughout.
